In patent US20220275103A1:
These are yes or no findings as the source states them, for the method shown. Some entries that bind do so weakly or less than the wild type.

Legend:
[1] = biological target: T1, CD300c antigen (11832-H08H, Sino Biological) (UniProt Q08708); assay: ELISA screen of scFv periplasmic extracts on coated CD300c antigen (Examples 1.2-1.3)
T1 sequence (looked up): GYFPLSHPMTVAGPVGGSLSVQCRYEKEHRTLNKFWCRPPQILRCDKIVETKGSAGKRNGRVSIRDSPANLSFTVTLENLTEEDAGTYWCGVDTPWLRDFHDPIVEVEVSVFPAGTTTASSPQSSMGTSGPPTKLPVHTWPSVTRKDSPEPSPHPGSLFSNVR

[2] = biological target: T1, CD300c antigen (11832-H08H, Sino Biological); assay: binding ELISA, sigmoid curves of FIG. 9

- binding [1]: binds
- binding [2]: binds
B1: SK12 (antibody, V domains shown)
VH: RVQLLESGGGLVQPGGSLRLSCAASGFTFSSYAMHWVRQAPGKGLEWVSAISGSGGDTYHADSVKGRFTISRDNSKNTLYLQMNSLRAEDTAVYYCTRGLSGFDYWGQGTLVTVSS
VL: EIVLTQSPGTLSLSPGERATLSCRASQSISSYLNWYQQKPGQAPRLLIYDASNRAPGIPDRFSGSGSGTDFTLTISRLEPEDFAVYYCQQSYSIPITFGQGTKVEIKF
